PubChem BioAssay AID1224830 | NIAID, 2016
This is an unselected part of about 18,000 deposited reagents. About 2,900 of all reagents (16%) were called active. 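Calls are made per well; low scores hint the gene aids the LPS response, high scores that it dampens it.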 Entries without a mark were called inactive. Repeated entries: four replicate wells of each siRNA pool.

- Purpose: 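Genes whose knock-down alters the TNF-alpha reporter response to LPS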 (primary screen)
- Cells: human THP-1 monocytic leukaemia cells, TNF dual-luciferase reporter clone, PMA-differentiated to macrophage-like cells
- Reagent: siRNA pool against human genes, 50 nM
- Timing: LPS for 4 h, given about 3 days after siRNA transfection
- Conditions: bacterial LPS (TLR4 ligand), 10 ng/ml
- Measured: 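TNF firefly reporter luminescence divided by renilla, normalised to the plate median, then turned into a robust z-score for each replicate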
- Scale: TNF reporter robust z-score: higher = stronger TNF reporter response to LPS
- Rule for the call: 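a well is active when its z-score exceeds 2.8 or falls below -1.5; control wells carry no call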

Depletion of TMEM209 (transmembrane protein 209) [SID315460581] resulted in: TNF reporter robust z-score 0.38. After knock-down of TMEM209 (transmembrane protein 209) [SID315460581], the screen gave TNF reporter robust z-score 0.41. Depletion of TMEM209 (transmembrane protein 209) [SID315460581] gave: TNF reporter robust z-score 0.97. Knock-down of TMEM209 (transmembrane protein 209) [SID315460581] came out at: TNF reporter robust z-score 0.78. Knock-down of ZNF776 (zinc finger protein 776) [SID315463757] gave: TNF reporter robust z-score 1.1. After knock-down of ZNF776 (zinc finger protein 776) [SID315463757], the record shows TNF reporter robust z-score 1.31.

Silencing of ZNF776 (zinc finger protein 776) [SID315463757] gave: TNF reporter robust z-score 1.23. After knock-down of NAA40 (N-alpha-acetyltransferase 40, NatD catalytic subunit) [SID315459492], the screen gave TNF reporter robust z-score -0.88. With knock-down of NAA40 (N-alpha-acetyltransferase 40, NatD catalytic subunit) [SID315459492] the results were TNF reporter robust z-score 0.75. Silencing of NAA40 (N-alpha-acetyltransferase 40, NatD catalytic subunit) [SID315459492] resulted in: TNF reporter robust z-score -0.34. For NAA40 (N-alpha-acetyltransferase 40, NatD catalytic subunit) [SID315459492], the values are TNF reporter robust z-score -0.35. Silencing of CDK5R2 (cyclin dependent kinase 5 regulatory subunit 2) [SID315452944] came out at: TNF reporter robust z-score -1.07.

Against CDK5R2 (cyclin dependent kinase 5 regulatory subunit 2) [SID315452944], the entry reads TNF reporter robust z-score -1.14. CDK5R2 (cyclin dependent kinase 5 regulatory subunit 2) [SID315452944] gave TNF reporter robust z-score -1. For CDK5R2 (cyclin dependent kinase 5 regulatory subunit 2) [SID315452944], the entry reads TNF reporter robust z-score -0.69. TMEM143 (transmembrane protein 143) [SID315457544] gave TNF reporter robust z-score 0.53. TMEM143 (transmembrane protein 143) [SID315457544] gave TNF reporter robust z-score -0.04. Against TMEM143 (transmembrane protein 143) [SID315457544] the deposit lists TNF reporter robust z-score 0.34.

Depletion of TMEM143 (transmembrane protein 143) [SID315457544] resulted in: TNF reporter robust z-score -0.02. TAFA3 (TAFA chemokine like family member 3) [SID315463788] showed TNF reporter robust z-score 1.39. TAFA3 (TAFA chemokine like family member 3) [SID315463788] gave TNF reporter robust z-score 1.17. TAFA3 (TAFA chemokine like family member 3) [SID315463788] showed TNF reporter robust z-score 1.1. Against TAFA3 (TAFA chemokine like family member 3) [SID315463788] the deposit lists TNF reporter robust z-score -0.89.

5 of these entries, reformatted:
{"Gene": "CDK5R2 (cyclin dependent kinase 5 regulatory subunit 2)", "PubChem SID": "SID315452944", "TNF reporter robust z-score": -1}
{"Gene": "CDK5R2 (cyclin dependent kinase 5 regulatory subunit 2)", "PubChem SID": "SID315452944", "TNF reporter robust z-score": -0.69}
{"Gene": "TMEM143 (transmembrane protein 143)", "PubChem SID": "SID315457544", "TNF reporter robust z-score": 0.53}
{"Gene": "TMEM143 (transmembrane protein 143)", "PubChem SID": "SID315457544", "TNF reporter robust z-score": -0.04}
{"Gene": "TMEM143 (transmembrane protein 143)", "PubChem SID": "SID315457544", "TNF reporter robust z-score": 0.34}

Additional records follow:
Depletion of PURA (purine rich element binding protein A) [SID315450982] resulted in: TNF reporter robust z-score 1.65. PURA (purine rich element binding protein A) [SID315450982] gave TNF reporter robust z-score 2.89 (active). Depletion of PURA (purine rich element binding protein A) [SID315450982] gave: TNF reporter robust z-score 2.54. Depletion of PURA (purine rich element binding protein A) [SID315450982] gave: TNF reporter robust z-score 2.63. After knock-down of WDR45 (WD repeat domain 45) [SID315454641], the record shows TNF reporter robust z-score 2.14. With knock-down of WDR45 (WD repeat domain 45) [SID315454641], the screen gave TNF reporter robust z-score 2.89 (active).

Against WDR45 (WD repeat domain 45) [SID315454641] the deposit lists TNF reporter robust z-score 3.06 (active). Silencing of WDR45 (WD repeat domain 45) [SID315454641] gave: TNF reporter robust z-score 3.42 (active). With knock-down of DRC12 (dynein regulatory complex subunit 12 homolog) [SID315463638] the results were TNF reporter robust z-score 0.4. Knock-down of DRC12 (dynein regulatory complex subunit 12 homolog) [SID315463638] came out at: TNF reporter robust z-score 2.89 (active). Depletion of DRC12 (dynein regulatory complex subunit 12 homolog) [SID315463638] resulted in: TNF reporter robust z-score 0.78. For DRC12 (dynein regulatory complex subunit 12 homolog) [SID315463638], the values are TNF reporter robust z-score 1.84.

Against ELMOD1 (ELMO domain containing 1) [SID315457669], the entry reads TNF reporter robust z-score -1. ELMOD1 (ELMO domain containing 1) [SID315457669] scored TNF reporter robust z-score -1.33. Silencing of ELMOD1 (ELMO domain containing 1) [SID315457669] resulted in: TNF reporter robust z-score -1.28. With knock-down of ELMOD1 (ELMO domain containing 1) [SID315457669] the results were TNF reporter robust z-score -1.03. With knock-down of ELMOD1 (ELMO domain containing 1) [SID315465089], the screen gave TNF reporter robust z-score -0.94. ELMOD1 (ELMO domain containing 1) [SID315465089] showed TNF reporter robust z-score -0.56.

With knock-down of ELMOD1 (ELMO domain containing 1) [SID315465089], the record shows TNF reporter robust z-score -0.55. With knock-down of ELMOD1 (ELMO domain containing 1) [SID315465089] the results were TNF reporter robust z-score -0.02. CIRSR (corepressor of RBPJ and splicing regulator) [SID315453369] scored TNF reporter robust z-score -0.26. After knock-down of CIRSR (corepressor of RBPJ and splicing regulator) [SID315453369] the results were TNF reporter robust z-score -0.41. With knock-down of CIRSR (corepressor of RBPJ and splicing regulator) [SID315453369], the record shows TNF reporter robust z-score -0.2. After knock-down of CIRSR (corepressor of RBPJ and splicing regulator) [SID315453369], the screen gave TNF reporter robust z-score -0.63.
